Data published in PubChem BioAssay AID330 (DTP/NCI, 2004).
The list is a part of this screen's results and no random one: it is rich in T/C values a quarter to a half above the control, in often repeated tests (any T/C) and in doses without a T/C. Other doses and runs of a compound stand elsewhere. T/C: endpoint of the treated group in % of that of the vehicle group. Some doses have a count of surviving animals in place of a T/C: the source files T/C as zero there, which appears to mark a toxic dose or a test without result, not a measured value. Some survivor counts are full or nearly so, which does not show that the dose was tolerated: survival well below the control is almost never listed, so the zero probably covers shortened survival too. Counts of survivors are from the toxicity check (mostly the fifth day) where no day follows; animals may have died later. Schedule codes are those of the source, read here as Q, the interval in days (D) or hours (H), X, the number of doses. Some doses were run more than once; their values stand side by side, smallest first. For survival time, this PubChem deposit counts one and a half times the control or more as active, and values a quarter to a half above the control carry no call in these data; other NCI protocols may use other cut-offs. Some T/C values carry the count of animals alive at the toxicity check (mostly the fifth day); where none is given, no animal had died by that day.

Test system: P388 leukemia ip, CD2F1 mice, survival T/C
Experiment: NCI In Vivo Anticancer Drug Screen. Data for tumor model P388 Leukemia (intraperitoneal) in CD2F1 (CDF1) mice
Conditions: T/C endpoint: median survival time, higher T/C = longer survival
[1] = dose: 120.0 mg/kg/injection, schedule: Q01DX005 (ip), vehicle: saline with Tween-80
[2] = dose: 240.0 mg/kg/injection, schedule: Q01DX005 (ip), vehicle: saline with Tween-80
[3] = dose: 12.5 mg/kg/injection, schedule: Q01DX009 (ip), vehicle: saline with Tween-80
[4] = dose: 50.0 mg/kg/injection, schedule: Q01DX009 (ip), vehicle: saline with Tween-80
[5] = dose: 100.0 mg/kg/injection, schedule: Q01DX005 (ip), vehicle: Klucel (hydroxypropylcellulose) (HPC)
[6] = dose: 200.0 mg/kg/injection, schedule: Q01DX005 (ip), vehicle: Klucel (hydroxypropylcellulose) (HPC)
[7] = dose: 100.0 mg/kg/injection, schedule: Q01DX005 (ip), vehicle: saline
[8] = dose: 200.0 mg/kg/injection, schedule: Q01DX005 (ip), vehicle: saline

COC(=O)c1cc(-c2ccc3ccccc3c2)[nH]c(=O)c1C#N
survivor count [1]: 6 of 6
survivor count [2]: 1 of 6

c1ccc(-c2nc3ccccc3nc2-c2ccc(-c3ccc(-c4nc5ccccc5nc4-c4ccccc4)cc3)cc2)cc1
survivor count [3]: 6 of 6
survivor count [4]: 6 of 6

C#CC1(OC(=O)Nc2cccc(Cl)c2)CCCCC1
T/C (dose: 100.0 mg/kg/injection, schedule: Q01DX009 (ip), vehicle: saline with Tween-80): 130 % of control

Cc1ncn(-c2ccccc2)c(=O)c1N=Cc1ccccc1
survivor count [2]: 4 of 6

c1ccc(N[n+]2ccc3ccccc3c2)cc1
survivor count (dose: 50.0 mg/kg/injection, schedule: Q01DX009 (ip), vehicle: distilled water + alcohol): 0 of 6
survivor count (dose: 100.0 mg/kg/injection, schedule: Q01DX009 (ip), vehicle: distilled water + alcohol): 0 of 6
survivor count (dose: 200.0 mg/kg/injection, schedule: Q01DX009 (ip), vehicle: distilled water + alcohol): 0 of 6

C=CCn1cnc2c(=S)nc[nH]c21
survivor count (dose: 400.0 mg/kg/injection, schedule: Q04DX003 (ip), vehicle: saline with Tween-80): 6 of 6

COc1ccc2c(c1)C(c1cccc3ccccc13)OC2 (stereo not drawn)
survivor count [5]: 5 of 5
survivor count [6]: 6 of 6

CCC1(c2cccc(C=O)c2)CCCCN(C)C1 (stereo not drawn)
survivor count (dose: 50.0 mg/kg/injection, schedule: Q01DX005 (ip), vehicle: saline): 4 of 5
survivor count [7]: 0 of 5
survivor count [8]: 0 of 5

CN(N=O)C(=O)NNC(=O)N(C)N=O
T/C (dose: 15.0 mg/kg/injection, schedule: Q01DX009 (ip), vehicle: saline with Tween-80): 127 % of control
T/C (dose: 60.0 mg/kg/injection, schedule: Q01DX009 (ip), vehicle: saline with Tween-80): 131 % of control
T/C (dose: 60.0 mg/kg/injection, schedule: Q04DX003 (ip), vehicle: saline with Tween-80): 125 % of control
T/C (dose: 90.0 mg/kg/injection, schedule: Q04DX003 (ip), vehicle: saline with Tween-80): 127 % of control [5 of 6 alive]

O=[As](O)(O)c1ccc(Nc2nc(Cl)nc(Cl)n2)cc1
survivor count (dose: 50.0 mg/kg/injection, schedule: Q01DX009 (ip), vehicle: Klucel (hydroxypropylcellulose) (HPC)): 5 of 6

CC(NNC(=S)N1CCCCCC1)c1ccc2ccccc2n1 (stereo not drawn)
T/C [6]: 130 % of control
survivor count (dose: 400.0 mg/kg/injection, schedule: Q01DX005 (ip), vehicle: Klucel (hydroxypropylcellulose) (HPC)): 1 of 6 and 5 of 6

CCOC(=O)c1cc(NO)c(=O)c2ccc(OC)cc2c1
survivor count (dose: 100.0 mg/kg/injection, schedule: Q01DX005 (ip), vehicle: saline with Tween-80): 5 of 5

CCOC(=C\C=C\C1=[N+](C)c2ccccc2C1(C)C)/C=C/C=C1/N(C)c2ccccc2C1(C)C
survivor count (dose: 6.25 mg/kg/injection, schedule: Q01DX009 (ip), vehicle: saline with Tween-80): 3 of 6
survivor count [3]: 3 of 6
survivor count (dose: 25.0 mg/kg/injection, schedule: Q01DX009 (ip), vehicle: saline with Tween-80): 0 of 6
survivor count [4]: 0 of 6

C=C(C)C(=NC)NC(C)(C)C
survivor count [6]: 4 of 5

Cn1c(=O)oc2cc(N)c(Cl)cc21
survivor count [5]: 4 of 6
survivor count [6]: 2 of 6

CCCCN(CCCC)CC(O)c1cccc2cc(Cl)ccc12 (stereo not drawn)
survivor count (dose: 200.0 mg/kg/injection, schedule: Q01DX005 (ip), vehicle: saline with Tween-80): 3 of 5

NS(=O)(=O)c1cc([N+](=O)[O-])sc1SSc1sc([N+](=O)[O-])cc1S(N)(=O)=O
survivor count (dose: 100.0 mg/kg/injection, schedule: Q01DX001 (ip), vehicle: saline with Tween-80): 0 of 6
survivor count (dose: 200.0 mg/kg/injection, schedule: Q01DX001 (ip), vehicle: saline with Tween-80): 0 of 6
survivor count (dose: 400.0 mg/kg/injection, schedule: Q01DX001 (ip), vehicle: saline with Tween-80): 0 of 6

CC(CCN1CCOCC1)Nc1ccnc2cc(Cl)ccc12 (stereo not drawn)
survivor count [7]: 3 of 5
survivor count [8]: 0 of 5

Oc1c(Cl)cc(C(c2cc(Cl)c(O)c(Cl)c2)C(c2cc(Cl)c(O)c(Cl)c2)c2cc(Cl)c(O)c(Cl)c2)cc1Cl
T/C (dose: 200.0 mg/kg/injection, schedule: Q04DX003 (ip), vehicle: Klucel (hydroxypropylcellulose) (HPC)): 126 % of control
survivor count (dose: 400.0 mg/kg/injection, schedule: Q04DX003 (ip), vehicle: Klucel (hydroxypropylcellulose) (HPC)): 6 of 6

O=C1N=CC2(N=N2)C(=O)N1
T/C (dose: 1.87 mg/kg/injection, schedule: Q01DX005 (ip), vehicle: saline with Tween-80): 149 % of control
survivor count (dose: 30.0 mg/kg/injection, schedule: Q01DX005 (ip), vehicle: saline with Tween-80): 0 of 6
survivor count (dose: 60.0 mg/kg/injection, schedule: Q01DX005 (ip), vehicle: saline with Tween-80): 0 of 6
survivor count [1]: 0 of 6
survivor count [2]: 0 of 6

COc1cc2cc(c1Cl)N(C)C(=O)CC(OC(=O)C(C)N(C)C(=O)C(C)C)C1(C)OC1C(C)C1CC(O)(NC(=O)O1)C(OC)/C=C/C=C(C)C2OC (stereo not drawn)
survivor count (dose: 0.12 mg/kg/injection, schedule: Q01DX009 (ip), vehicle: none): 1 of 4
survivor count (dose: 0.25 mg/kg/injection, schedule: Q01DX009 (ip), vehicle: none): 0 of 4
survivor count (dose: 0.5 mg/kg/injection, schedule: Q01DX009 (ip), vehicle: none): 0 of 4
survivor count (dose: 1.0 mg/kg/injection, schedule: Q01DX009 (ip), vehicle: none): 0 of 4
T/C (dose: 1.0 micrograms/kg/injection, schedule: Q01DX009 (ip), vehicle: Klucel (hydroxypropylcellulose) (HPC)): 148 % of control
T/C (dose: 2.0 micrograms/kg/injection, schedule: Q01DX009 (ip), vehicle: Klucel (hydroxypropylcellulose) (HPC)): 126 % of control
T/C (dose: 7.75 micrograms/kg/injection, schedule: Q01DX009 (ip), vehicle: none): 141 % of control
T/C (dose: 8.0 micrograms/kg/injection, schedule: Q01DX009 (ip), vehicle: Klucel (hydroxypropylcellulose) (HPC)): 140 % of control
T/C (dose: 16.0 micrograms/kg/injection, schedule: Q01DX009 (ip), vehicle: Klucel (hydroxypropylcellulose) (HPC)): 144 % of control
T/C (dose: 32.0 micrograms/kg/injection, schedule: Q01DX009 (ip), vehicle: Klucel (hydroxypropylcellulose) (HPC)): 128 % of control
T/C (dose: 32.0 micrograms/kg/injection, schedule: Q01DX009 (ip), vehicle: distilled water + alcohol): 131 % of control
survivor count (dose: 62.0 micrograms/kg/injection, schedule: Q01DX009 (ip), vehicle: none): 2 of 4

CCCCN(CCCC)C(=S)S
survivor count (dose: 120.0 mg/kg/injection, schedule: Q01DX005 (ip), vehicle: Klucel (hydroxypropylcellulose) (HPC)): 6 of 6
survivor count (dose: 240.0 mg/kg/injection, schedule: Q01DX005 (ip), vehicle: Klucel (hydroxypropylcellulose) (HPC)): 4 of 6

CC[C@@]1(O)C(=O)OCc2c1cc1n(c2=O)Cc2cc3cc(OC)ccc3nc2-1
T/C (dose: 0.39 mg/kg/injection, schedule: Q04DX003 (ip), vehicle: other): 127 % of control
T/C (dose: 0.79 mg/kg/injection, schedule: Q04DX003 (ip), vehicle: other): 138 % of control
survivor count (dose: 6.25 mg/kg/injection, schedule: Q04DX003 (ip), vehicle: other): 6 of 6
survivor count (dose: 12.5 mg/kg/injection, schedule: Q04DX003 (ip), vehicle: other): 3 of 6

C[N+](c1ccc(Cl)cc1)=S(C)(C)=O
survivor count (dose: 50.0 mg/kg/injection, schedule: Q01DX009 (ip), vehicle: saline): 3 of 6
survivor count (dose: 100.0 mg/kg/injection, schedule: Q01DX009 (ip), vehicle: saline): 0 of 6
survivor count (dose: 200.0 mg/kg/injection, schedule: Q01DX009 (ip), vehicle: saline): 0 of 6

CC(NC(=O)OCc1ccccc1)C(=O)NC1C(O)OC(CO)C(O)C1O (stereo not drawn)
survivor count (dose: 12.5 mg/kg/injection, schedule: Q01DX009 (ip), vehicle: water): 6 of 6
survivor count (dose: 50.0 mg/kg/injection, schedule: Q01DX009 (ip), vehicle: other): 0 of 6
survivor count (dose: 100.0 mg/kg/injection, schedule: Q01DX009 (ip), vehicle: other): 0 of 6
survivor count (dose: 200.0 mg/kg/injection, schedule: Q01DX009 (ip), vehicle: other): 0 of 6
